Literature values in patent US7303915B2, “In vitro-differentiated retinal ganglion cells and method for producing same” (Wisconsin Alumni Research Foundation, priority 2005, dated 2007).

How the values were obtained:
[1] = test system: cAMP PDE; settings: Table 2; cited from earlier work
[2] = test system: cGMP PDE; settings: Table 2; cited from earlier work

## CN[C@@H]1C[C@H]2O[C@@](C)([C@@H]1OC)n1c3ccccc3c3c4c(c5c6ccccc6n2c5c31)C(=O)NC4 [staurosporine]
[1]
  inhibits cAMP PDE (X mark): (via
[2]
  inhibits cGMP PDE (X mark): (via
